Assay results as given in article PMC7673785.
These are yes or no findings as the source states them, for the method shown. In cells and extracts the contact can be indirect. These calls come from enrichment with a bait or labelling near it, and not all partners need be listed.

Chains of the proteins cited; added tags and fusions are not shown.
UniProt Q9Y572: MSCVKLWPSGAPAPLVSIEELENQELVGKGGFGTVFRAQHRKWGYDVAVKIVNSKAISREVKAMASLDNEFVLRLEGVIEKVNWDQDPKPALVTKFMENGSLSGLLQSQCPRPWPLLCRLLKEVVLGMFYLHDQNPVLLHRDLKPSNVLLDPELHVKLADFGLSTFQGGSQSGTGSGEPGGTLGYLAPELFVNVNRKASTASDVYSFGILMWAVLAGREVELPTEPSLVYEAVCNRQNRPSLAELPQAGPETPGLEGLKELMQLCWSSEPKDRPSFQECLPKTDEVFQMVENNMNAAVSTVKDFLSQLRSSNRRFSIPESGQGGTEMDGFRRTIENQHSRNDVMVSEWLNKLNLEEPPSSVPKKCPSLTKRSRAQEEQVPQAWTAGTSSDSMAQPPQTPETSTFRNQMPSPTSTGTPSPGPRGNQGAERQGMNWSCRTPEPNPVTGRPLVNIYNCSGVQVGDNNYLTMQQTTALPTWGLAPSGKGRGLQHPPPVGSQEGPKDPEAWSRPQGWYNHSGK
UniProt P49674: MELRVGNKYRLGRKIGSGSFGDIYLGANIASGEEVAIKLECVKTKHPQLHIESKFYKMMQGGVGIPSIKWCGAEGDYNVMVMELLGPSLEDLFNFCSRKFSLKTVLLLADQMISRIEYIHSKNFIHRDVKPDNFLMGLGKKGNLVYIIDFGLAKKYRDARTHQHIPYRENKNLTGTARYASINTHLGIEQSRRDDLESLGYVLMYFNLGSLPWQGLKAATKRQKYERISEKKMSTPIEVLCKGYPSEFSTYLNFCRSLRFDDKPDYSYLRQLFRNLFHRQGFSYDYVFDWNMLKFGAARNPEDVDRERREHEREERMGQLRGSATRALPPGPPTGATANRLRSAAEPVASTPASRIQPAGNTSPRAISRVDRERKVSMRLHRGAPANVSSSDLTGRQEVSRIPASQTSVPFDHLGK

Target: HA-3×Flag-RIPK3 (in HT29-HA-3×Flag-RIPK3 cells) (human) (UniProt Q9Y572)
Experiment: affinity purification with mass spectrometry; HT29-HA-3×Flag-RIPK3 cell lysates immunoprecipitated with anti-Flag resin; protein mixture analysed by mass spectrometry

binding: binds
Substance: CSNK1E (from UniProt P49674 1-416) (enzyme)
